Values from PubChem BioAssay AID1259405 (NCATS, 2018)
Aim: 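Silenced genes that increase secreted GFP made by CHO cells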 (primary screen). Cell system: Chinese hamster CHO-K1 ovary cells with stable secreted eGFP expression. Knock-down reagent: single siRNA against mouse genes, 0.8 pmol siRNA per well (2 µl of 400 nM stock). Time to read-out: 3 days. Measured: 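Per-well intracellular GFP measured by laser scanning cytometry, plus viability from ATP luminescence, each relative to plate median of non-targeting control wells, in %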. Reading the numbers: GFP, % of control: higher = more GFP per well, higher productivity; viability (ATP), % of control: higher = more viable cells (more ATP). Active means: 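a knock-down is called active if GFP reaches 120% or more of non-targeting control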.
Shown is a random part of about 50,000 deposited reagents. Over the whole deposit, about 4,000 (8%) were called active. 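Mouse siRNA library applied to hamster cells; one well for each siRNA.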 The numbers tell different reagents against one gene apart.

A930012O16Rik #1
- GFP, % of control: 104
- viability (ATP), % of control: 68.3
- Outcome: inactive

A930012O16Rik #2
- GFP, % of control: 89.8
- viability (ATP), % of control: 93.1
- Outcome: inactive

A930012O16Rik #3
- GFP, % of control: 90.6
- viability (ATP), % of control: 67.3
- Outcome: inactive

Gypc #1
- GFP, % of control: 82.4
- viability (ATP), % of control: 71.3
- Outcome: inactive

Gypc #2
- GFP, % of control: 78.2
- viability (ATP), % of control: 96.2
- Outcome: inactive

Gypc #3
- GFP, % of control: 92.3
- viability (ATP), % of control: 77.2
- Outcome: inactive

Usp37 #1
- GFP, % of control: 97.7
- viability (ATP), % of control: 99.7
- Outcome: inactive

Usp37 #2
- GFP, % of control: 48.7
- viability (ATP), % of control: 50
- Outcome: inactive

Usp37 #3
- GFP, % of control: 79
- viability (ATP), % of control: 72.5
- Outcome: inactive

Or52m1 #1
- GFP, % of control: 137
- viability (ATP), % of control: 94.5
- Outcome: active

Or52m1 #2
- GFP, % of control: 75.5
- viability (ATP), % of control: 73.2
- Outcome: inactive

Or52m1 #3
- GFP, % of control: 64.5
- viability (ATP), % of control: 97.6
- Outcome: inactive

Sprr4 #1
- GFP, % of control: 51.6
- viability (ATP), % of control: 68.2
- Outcome: inactive

Sprr4 #2
- GFP, % of control: 121
- viability (ATP), % of control: 126
- Outcome: active

Epha6 #1
- GFP, % of control: 40.2
- viability (ATP), % of control: 50.3
- Outcome: inactive

Epha6 #2
- GFP, % of control: 81
- viability (ATP), % of control: 97.7
- Outcome: inactive

Epha6 #3
- GFP, % of control: 60.5
- viability (ATP), % of control: 73.5
- Outcome: inactive

Ccdc14 #1
- GFP, % of control: 68.3
- viability (ATP), % of control: 86.2
- Outcome: inactive

Ccdc14 #2
- GFP, % of control: 91.3
- viability (ATP), % of control: 82.1
- Outcome: inactive

Ccdc14 #3
- GFP, % of control: 99.8
- viability (ATP), % of control: 71.9
- Outcome: inactive

Ces2c #1
- GFP, % of control: 42.5
- viability (ATP), % of control: 41.2
- Outcome: inactive

Ces2c #2
- GFP, % of control: 118
- viability (ATP), % of control: 100
- Outcome: inactive

Ces2c #3
- GFP, % of control: 72.5
- viability (ATP), % of control: 65.5
- Outcome: inactive

Grk3
- GFP, % of control: 59.6
- viability (ATP), % of control: 68
- Outcome: inactive

Amph #1
- GFP, % of control: 188
- viability (ATP), % of control: 144
- Outcome: active

Amph #2
- GFP, % of control: 93.1
- viability (ATP), % of control: 70.2
- Outcome: inactive

Lipg #1
- GFP, % of control: 115
- viability (ATP), % of control: 126
- Outcome: inactive

Lipg #2
- GFP, % of control: 134
- viability (ATP), % of control: 125
- Outcome: active

Lipg #3
- GFP, % of control: 73.5
- viability (ATP), % of control: 100
- Outcome: inactive

Mknk2 #1
- GFP, % of control: 42.9
- viability (ATP), % of control: 25.4
- Outcome: inactive

Mknk2 #2
- GFP, % of control: 58.4
- viability (ATP), % of control: 74.4
- Outcome: inactive

Mknk2 #3
- GFP, % of control: 72.5
- viability (ATP), % of control: 73.2
- Outcome: inactive

Tsnaxip1 #1
- GFP, % of control: 69.8
- viability (ATP), % of control: 82
- Outcome: inactive

Tsnaxip1 #2
- GFP, % of control: 88.3
- viability (ATP), % of control: 78.1
- Outcome: inactive

Tsnaxip1 #3
- GFP, % of control: 77.2
- viability (ATP), % of control: 76.5
- Outcome: inactive

Asb7 #1
- GFP, % of control: 96.6
- viability (ATP), % of control: 78.8
- Outcome: inactive

Asb7 #2
- GFP, % of control: 73.5
- viability (ATP), % of control: 81.1
- Outcome: inactive

Asb7 #3
- GFP, % of control: 53.3
- viability (ATP), % of control: 74.8
- Outcome: inactive

Sh3kbp1 #1
- GFP, % of control: 56.2
- viability (ATP), % of control: 49.1
- Outcome: inactive

Sh3kbp1 #2
- GFP, % of control: 69.7
- viability (ATP), % of control: 67.7
- Outcome: inactive

Sh3kbp1 #3
- GFP, % of control: 75.4
- viability (ATP), % of control: 68.1
- Outcome: inactive
